{"source": "PubChem BioAssay AID1159584, Peter MacCallum Cancer Centre, 2016", "aim": "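Knock-downs that harm CDH1-null cells more than parental MCF10A cells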 (primary screen)", "cell system": "human MCF10A breast epithelial cells, parental and CDH1-null", "reagent": "siRNA against human genes", "measurement": "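ATP luminescence (CellTiter-Glo) viability per line relative to mean mock wells over all plates, and the ratio of CDH1-null to parental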", "scale": "CDH1-null / parental viability ratio: higher = CDH1-null cells survive relatively better than parental", "note": "Shown is a random part of about 18,000 reagents tested. Not all columns of the deposit are shown. Reagent sequences are not shown. Not given: the amount of reagent, the time to read-out."}
{"gene": "DEFB113", "CDH1-null / parental viability ratio": 0.69}
{"gene": "FBXL3", "CDH1-null / parental viability ratio": 1.07}
{"gene": "NUP37", "CDH1-null / parental viability ratio": 1.22}
{"gene": "ZNF586", "CDH1-null / parental viability ratio": 1.41}
{"gene": "COX4I1", "CDH1-null / parental viability ratio": 0.98}
{"gene": "TOX", "CDH1-null / parental viability ratio": 1.11}
{"gene": "OR5K4", "CDH1-null / parental viability ratio": 0.75}
{"gene": "OR4N5", "CDH1-null / parental viability ratio": 1.22}
{"gene": "CD34", "CDH1-null / parental viability ratio": 1.01}
{"gene": "GBX2", "CDH1-null / parental viability ratio": 1.13}
{"gene": "SAXO5", "CDH1-null / parental viability ratio": 0.75}
{"gene": "RGS11", "CDH1-null / parental viability ratio": 1.17}
{"gene": "OR1D5", "CDH1-null / parental viability ratio": 0.82}
{"gene": "CEP152", "CDH1-null / parental viability ratio": 0.89}
{"gene": "ELSPBP1", "CDH1-null / parental viability ratio": 1}
{"gene": "ZNF337", "CDH1-null / parental viability ratio": 1}
{"gene": "DYNC2LI1", "CDH1-null / parental viability ratio": 1.06}
{"gene": "ARSF", "CDH1-null / parental viability ratio": 1.09}
{"gene": "C3orf18", "CDH1-null / parental viability ratio": 0.94}
{"gene": "MIB2", "CDH1-null / parental viability ratio": 1.05}
{"gene": "HOXD1", "CDH1-null / parental viability ratio": 1.08}
{"gene": "COQ6", "CDH1-null / parental viability ratio": 0.97}
{"gene": "CLCN7", "CDH1-null / parental viability ratio": 1.92}
{"gene": "ACSBG2", "CDH1-null / parental viability ratio": 0.97}
{"gene": "CCT6B", "CDH1-null / parental viability ratio": 0.94}
{"gene": "OR8G5", "CDH1-null / parental viability ratio": 0.8}
{"gene": "GFUS", "CDH1-null / parental viability ratio": 0.83}
{"gene": "ZNHIT3", "CDH1-null / parental viability ratio": 0.73}
{"gene": "TBCK", "CDH1-null / parental viability ratio": 0.99}
{"gene": "NDC80", "CDH1-null / parental viability ratio": 1.38}
{"gene": "DLEC1", "CDH1-null / parental viability ratio": 1.01}
{"gene": "OR10A7", "CDH1-null / parental viability ratio": 1.17}
{"gene": "PHETA1", "CDH1-null / parental viability ratio": 0.82}
{"gene": "TNFSF10", "CDH1-null / parental viability ratio": 1.06}
{"gene": "TBXA2R", "CDH1-null / parental viability ratio": 0.7}
{"gene": "AP1S2", "CDH1-null / parental viability ratio": 0.87}
{"gene": "TMED6", "CDH1-null / parental viability ratio": 1.26}
{"gene": "RNF207", "CDH1-null / parental viability ratio": 0.99}
{"gene": "TARS2", "CDH1-null / parental viability ratio": 0.9}
{"gene": "MAP2K3", "CDH1-null / parental viability ratio": 1.14}
{"gene": "NDUFA9", "CDH1-null / parental viability ratio": 1.1}
{"gene": "SPPL2B", "CDH1-null / parental viability ratio": 1.32}
{"gene": "GABRA2", "CDH1-null / parental viability ratio": 1.12}
{"gene": "IFRD2", "CDH1-null / parental viability ratio": 1}
{"gene": "DNAAF5", "CDH1-null / parental viability ratio": 1.15}

As entered above:
Value for NDUFA9 in “CDH1-null / parental viability ratio”: 1.1
For “CDH1-null / parental viability ratio”, DLEC1 has 1.01
Under “CDH1-null / parental viability ratio”, ARSF is entered as 1.09
TOX, CDH1-null / parental viability ratio: 1.11
